Results deposited as PubChem BioAssay AID1053208 (Peter MacCallum Cancer Centre, 2014)
The whole screen tested about 17,000 reagents; shown is a random part of them. In the full data, 788 (4.7%) were called active. 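Calls rest on z-score classes alone; an extra cut-off of viability at most 70% of control was not applied to them.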 Unmarked entries are inactive.

Assay: 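Synthetic lethal interactions between gene loss and doxorubicin in osteosarcoma cells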 (primary screen)
Cell system: mouse osteosarcoma cells, early-passage culture from an engineered mouse model of fibroblastic bone tumour
Knock-down reagent: siRNA pool against mouse genes, 40 nM
Time to read-out: about 120 h (48 h before drug, then 72 h with drug)
Challenge: doxorubicin 100 nM for 72 h, roughly 30-40% inhibitory dose
Measurement: 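Luminescent ATP signal taken as viability with or without 100 nM doxorubicin for 72 h; mean of two wells set against non-targeting siRNA and turned into robust z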
Scale: viability z-score with doxorubicin and doxorubicin viability vs non-targeting: higher = more viable cells under doxorubicin; viability z-score without drug: higher = more viable cells with knock-down alone; z-score of drug to no-drug ratio: higher = less drug sensitisation by knock-down
Call rule: 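Called active if knock-down leaves viability unchanged without drug (z within -2 to 2) but lowers it with doxorubicin (z at or under -2)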

| gene | combined z-score class | viability z-score with doxorubicin | viability z-score without drug | z-score of drug to no-drug ratio | doxorubicin viability vs non-targeting |
| --- | --- | --- | --- | --- | --- |
| Pof1b | no change with or without drug | 0.34 | -0.84 | 1.12 | 0.97 |
| Gpx5 | no change with or without drug | 0.11 | 0.17 | 0.11 | 0.95 |
| Eif2b5 | no change with or without drug | -1.8 | -1.52 | -0.79 | 0.78 |
| Vdac2 | low cell count with doxorubicin only (active) | -4.5 | -1.35 | -4.05 | 0.54 |
| Zfp300 | no change with or without drug | -0.67 | -1.01 | 0.11 | 0.88 |
| Tbcel | no change with or without drug | 0 | 0.17 | 0 | 0.94 |
| Mc1r | no change with or without drug | -1.69 | -1.52 | -0.67 | 0.79 |
| Chrna7 | no change with or without drug | -1.57 | -1.01 | -0.9 | 0.8 |
| Rufy1 | high cell count with and without drug | 3.04 | 2.19 | 1.57 | 1.21 |
| Homer2 | no change with or without drug | -0.56 | -0.51 | -0.11 | 0.89 |
| Cbx5 | no change with or without drug | -0.79 | 0 | -0.67 | 0.87 |
| Cdh15 | no change with or without drug | 0.79 | -0.51 | 1.35 | 1.01 |
| Dclk2 | no change with or without drug | 0 | -0.84 | 0.67 | 0.94 |
| Socs2 | no change with or without drug | -0.34 | 0.34 | -0.45 | 0.91 |
| Or11g24 | no change with or without drug | 0.45 | -0.17 | 0.67 | 0.98 |
| Rbp4 | no change with or without drug | -0.67 | -1.52 | 0.45 | 0.88 |
| Cx3cr1 | no change with or without drug | 0.45 | -1.18 | 1.46 | 0.98 |
| Prkca | no change with or without drug | 1.57 | 1.18 | 0.9 | 1.08 |
| Slc9b1 | high cell count without drug only | 1.24 | 2.02 | 0 | 1.05 |
| Or6c70 | no change with or without drug | -1.91 | -1.52 | -0.9 | 0.77 |
| Ap2a2 | no change with or without drug | 0.45 | 0.84 | 0 | 0.98 |

Looked up above:
Dclk2, combined z-score class: no change with or without drug
Socs2, combined z-score class → no change with or without drug

The list goes on.
| gene | combined z-score class | viability z-score with doxorubicin | viability z-score without drug | z-score of drug to no-drug ratio | doxorubicin viability vs non-targeting |
| --- | --- | --- | --- | --- | --- |
| Fas | no change with or without drug | 0.22 | -1.35 | 1.35 | 0.96 |
| Nudt8 | high cell count with doxorubicin only | 2.14 | 0 | 2.36 | 1.13 |
| Ftl1 | no change with or without drug | -0.11 | 0.17 | -0.11 | 0.93 |
| Syngr1 | low cell count with doxorubicin only (active) | -2.59 | -0.67 | -2.25 | 0.71 |
| Pkn3 | no change with or without drug | -0.67 | -0.17 | -0.45 | 0.88 |
| Dhodh | no change with or without drug | 1.24 | 0.84 | 0.79 | 1.05 |
| Cycs | no change with or without drug | 0.9 | -0.34 | 1.35 | 1.02 |
| Mapk15 | no change with or without drug | -1.35 | 0.51 | -1.57 | 0.82 |
| Plxnb3 | no change with or without drug | 0 | -0.51 | 0.45 | 0.94 |
| Rspry1 | no change with or without drug | 0.22 | 0 | 0.34 | 0.96 |
| Ppp1r14bl | high cell count without drug only | 0.45 | 3.71 | -1.57 | 0.98 |
| Or9e1 | no change with or without drug | -0.67 | 0.17 | -0.67 | 0.88 |
| Skp2 | no change with or without drug | -0.45 | 1.01 | -1.01 | 0.9 |
